Reference: the supplement of paper PMC4962491
± gives the standard deviation of the averaged measurements. The entries are a selection whose mix differs from that of the whole data set. Single values are uncertain here, since repeats match poorly.

Tested on: FaDu
Test: mitochondrial oxygen consumption rate normalised to cell number, Z score over the library; higher = higher oxygen consumption (negative = OCR reduction)
Details: treatment time 24 h, assay medium: 5 mM galactose, 5 mM pyruvate, 4 mM glutamine
Procedure: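 Primary screen: FaDu cells were incubated 24 h with Pharmakon 1600 / TDI oncology set compounds at 2 or 10 uM. Mitochondrial-specific OCR (basal minus 2 uM antimycin A) was measured on a Seahorse XF96 in assay medium with 5 mM galactose, 5 mM pyruvate and 4 mM glutamine, then corrected for Hoechst cell number and expressed as a Z score […]. Compounds that cut cell number by >66% were excluded. Two repeats.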

Structure (SMILES)	mitochondrial oxygen consumption rate normalised (2 µM)	mitochondrial oxygen consumption rate normalised (10 µM)
Oc1c(I)cc(I)c2cccnc12	-0.362 ± 0.5	–
O=C(CCCN1CC=C(n2c(=O)[nH]c3ccccc32)CC1)c1ccc(F)cc1	1.24 ± 0.54	–
CCN(CC)CCNC(=O)c1cc(S(C)(=O)=O)ccc1OC	0.459 ± 1.2	–
C[C@H]1[C@@H](O)O[C@@H]2O[C@@]3(C)CC[C@H]4[C@H](C)CC[C@@H]1[C@@]24OO3	-0.223 ± 0.058	–
CCn1cc(C(=O)O)c(=O)c2ccc(C)nc21	0.76 ± 0.77	–
O=C(O)CCC(=O)OC[C@@H](NC(=O)C(Cl)Cl)[C@H](O)c1ccc([N+](=O)[O-])cc1	-3.29 ± 0.069	-1.19 ± 0.7
COc1ccc2cc(CCC(C)=O)ccc2c1	-0.171 ± 1.7	–
CCCCCC(C)N (configuration not stated)	0.0701 ± 0.19	–
C#CCN(C)Cc1ccccc1	-0.275 ± 0.29	–
CC(=O)N[C@@H](CC(=O)N[C@@H](CCC(=O)O)C(=O)O)C(=O)O	-0.19 ± 0.48	–
Cc1ccc(S(=O)(=O)NC(=O)NN2CC3CCCC3C2)cc1 (configuration not stated)	0.427 ± 0.53	–
NCCS(=O)(=O)O	-0.442 ± 0.2	–
COc1cc2nc(N3CCN(C(=O)c4ccco4)CC3)nc(N)c2cc1OC	0.0936 ± 0.067	–
CCn1cc(C(=O)O)c(=O)c2cnc(N3CCNCC3)nc21	-0.871 ± 0.019	–
O=C([O-])c1ccccc1O.[Na+]	-0.35 ± 0.078	–
NC[C@H]1O[C@H](O[C@H]2[C@H](O[C@@H]3O[C@H](CO)[C@@H](O)[C@H]3O)[C@@H](O)[C@H](N)C[C@@H]2N)[C@H](N)[C@@H](O)[C@@H]1O	0.141 ± 0.2	0.994 ± 0.3
C=CC[C@@H]1/C=C(\C)C[C@H](C)C[C@H](OC)[C@H]2O[C@@](O)(C(=O)C(=O)N3CCCC[C@H]3C(=O)O[C@H](/C(C)=C/[C@@H]3CC[C@@H](O)[C@H](OC)C3)[C@H](C)[C@@H](O)CC1=O)[C@H](C)C[C@@H]2OC	1.24 ± 1.2	–
CCN(CC)CC#CCOC(=O)C(O)(c1ccccc1)C1CCCCC1 (configuration not stated)	0.27 ± 0.37	–
Cc1ncc([N+](=O)[O-])n1CCO	-0.158 ± 0.21	–
OC(CCN1CCCCC1)(c1ccccc1)C1CC2C=CC1C2 (configuration not stated)	0.109 ± 0.032	–
CCN(Cc1ccncc1)C(=O)C(CO)c1ccccc1 (configuration not stated)	0.49 ± 0.33	–
CC(C)N1CCN(c2ccc(OCC3COC(Cn4cncn4)(c4ccc(Cl)cc4Cl)O3)cc2)CC1 (configuration not stated)	0.137 ± 0.41	–
CN1C2CCCC1CC(NC(=O)c1nn(C)c3ccccc13)C2 (configuration not stated)	0.817 ± 0.43	–
CO[C@@H]1[C@@H](OC(N)=O)[C@@H](O)[C@H](Oc2ccc3c(O)c(NC(=O)c4ccc(O)c(CC=C(C)C)c4)c(=O)oc3c2C)OC1(C)C	0.586 ± 0.28	–
CCN1CCN(C(=O)N[C@@H](C(=O)N[C@@H]2C(=O)N3[C@@H]2SC(C)(C)[C@@H]3C(=O)O)c2ccccc2)C(=O)C1=O	0.18 ± 1.1	–
CC(=O)Oc1cccc(O)c1	0.0871 ± 2.2	0.689 ± 0.62

Structure (SMILES)	mitochondrial oxygen consumption rate normalised (2 µM)	mitochondrial oxygen consumption rate normalised (10 µM)
CN1CCCC(n2nc(Cc3ccc(Cl)cc3)c3ccccc3c2=O)CC1 (configuration not stated)	-0.645 ± 0.55	–
O=C(CNC(=O)c1ccc(Cl)cc1)NO	-0.322 ± 0.45	–
CN(C)CCC[C@@]1(c2ccc(F)cc2)OCc2cc(C#N)ccc21	0.152 ± 0.066	–
CCCC(=O)Nc1ncnc2c1ncn2[C@@H]1O[C@@H]2COP(=O)(O)O[C@H]2[C@H]1OC(=O)CCC	-0.648 ± 0.33	–
CC1=CC(=O)NS(=O)(=O)O1	-0.535 ± 1	–
NC(=O)N/N=C/c1ccc([N+](=O)[O-])o1	-1.2 ± 0.83	–
O=C(O[C@H]1CN2CCC1CC2)N1CCc2ccccc2[C@@H]1c1ccccc1	-0.199 ± 0.37	–
Cc1ncc(CSSCc2cnc(C)c(O)c2CO)c(CO)c1O	-0.515 ± 0.18	–
CC(=O)Oc1cccc2c1C(=O)c1c(OC(C)=O)cc(C(=O)O)cc1C2=O	-0.673 ± 0.13	–
N=C(N)NC(=N)N1CCOCC1	-0.189 ± 0.45	–
C=C1C[C@H]2[C@@H]3C=C(C)C4=CC(=O)CC[C@]4(C)[C@H]3CC[C@]2(C)[C@@]1(OC(C)=O)C(C)=O	0.0119 ± 0.37	–
N[C@H]1C(O)O[C@H](CO)[C@@H](O)[C@@H]1O (some centres not stated)	-0.741 ± 1.4	–
OCCN1CCN(CCCN2c3ccccc3Sc3ccc(Cl)cc32)CC1	-0.731 ± 1.3	–
Nc1ccc(S(=O)(=O)c2ccc(N)cc2)cc1	0.255 ± 1.2	–
Nc1ccc(C(=O)NCC(=O)O)cc1	0.751 ± 0.43	–
COc1ccc(NS(=O)(=O)c2ccc(N)cc2)nn1	-0.198 ± 0.81	–
Cn1nnnc1SCC1=C(C(=O)O)N2C(=O)[C@@H](NC(=O)[C@H](O)c3ccccc3)[C@H]2SC1	0.541 ± 0.039	0.376 ± 0.31
CCC[C@H](N[C@@H](C)C(=O)N1[C@H](C(=O)O)C[C@@H]2CCCC[C@@H]21)C(=O)OCC	0.637 ± 0.94	–
N=C(N)NCC1COC2(CCCCC2)O1 (configuration not stated)	0.201 ± 0.017	–
CC1(C)OC(=O)NC1=O	-0.838 ± 0.56	–
Cc1scc2c1N(C(=O)CN1CCN(C)CC1)c1ccccc1NC2=O	-0.583 ± 0.41	–
c1ccc(C2CN3CCSC3=N2)cc1 (configuration not stated)	0.695 ± 0.14	–
C=C1c2cccc(O)c2C(=O)C2=C(O)[C@]3(O)C(=O)C(C(N)=O)=C(O)[C@@H](N(C)C)[C@@H]3[C@@H](O)[C@H]12	-0.773 ± 0.65	–
Cn1c(=O)c2nc[nH]c2n(C)c1=O	0.969 ± 0.13	–
Cc1nc2ccccc2n1Cc1ccc(Cl)cc1	-0.463 ± 0.92	–
Cc1cc(=O)oc2cc(O)ccc12	-0.593 ± 0.18	0.758 ± 0.23

Look-ups from the results shown:
mitochondrial oxygen consumption rate normalised (2 µM) with CC(=O)Oc1cccc2c1C(=O)c1c(OC(C)=O)cc(C(=O)O)cc1C2=O reads -0.673 ± 0.13
mitochondrial oxygen consumption rate normalised (10 µM) with Cn1nnnc1SCC1=C(C(=O)O)N2C(=O)[C@@H](NC(=O)[C@H](O)c3ccccc3)[C@H]2SC1 reads 0.376 ± 0.31
mitochondrial oxygen consumption rate normalised (2 µM) with Nc1ccc(S(=O)(=O)c2ccc(N)cc2)cc1 reads 0.255 ± 1.2
mitochondrial oxygen consumption rate normalised (2 µM) with O=C(CNC(=O)c1ccc(Cl)cc1)NO reads -0.322 ± 0.45
mitochondrial oxygen consumption rate normalised (2 µM) with CC1=CC(=O)NS(=O)(=O)O1 reads -0.535 ± 1

(continued)

Structure (SMILES)	mitochondrial oxygen consumption rate normalised (2 µM)	mitochondrial oxygen consumption rate normalised (10 µM)
O=C(NCc1ccccc1)OCCO	0.246 ± 0.27	1.42 ± 0.86
OC[C@H]1O[C@H]([S-])[C@H](O)[C@@H](O)[C@@H]1O.[Au+]	1.32 ± 0.1	–
CC(=O)c1ccc(S(=O)(=O)NC(=O)NC2CCCCC2)cc1	0.532 ± 0.041	–
COc1ccc(CN(CCN(C)C)c2ccccn2)cc1	-0.956 ± 0.69	–
CCCNC(C)C(=O)Nc1ccccc1C (configuration not stated)	-0.271 ± 1.6	-0.507 ± 1.1
Nc1ncn([C@@H]2O[C@H](CO)[C@@H](O)[C@H]2O)c(=O)n1	-0.988 ± 0.97	–
Nc1ncn([C@@H]2O[C@H](CO)[C@@H](O)[C@H]2O)c(=O)n1 [Azacitidine]	0.772 ± 0.69	–
CC(COc1ccccc1)N(CCCl)Cc1ccccc1 (configuration not stated)	-0.354 ± 0.41	–
CCOC(=O)OC(C)OC(=O)[C@@H]1N2C(=O)[C@@H](NC(=O)[C@H](N)c3ccccc3)[C@H]2SC1(C)C (some centres not stated)	0.24 ± 0.78	–
COC1=C(OC)C(=O)C(CCCCCCCCCCO)=C(C)C1=O	0.407 ± 0.48	–
CCOC(=O)[C@H](CCc1ccccc1)N[C@H]1CCc2ccccc2N(CC(=O)O)C1=O	-0.641 ± 0.68	–
C[C@]12CCC(=O)C=C1CC[C@@H]1[C@@H]2[C@@H](O)C[C@@]2(C)[C@H]1CC[C@]2(O)C(=O)COC(=O)CCC(=O)O	-0.635 ± 0.42	–
CC(C)(C)NC[C@H](O)COc1nsnc1N1CCOCC1	-0.319 ± 0.26	–
NCCCC[C@H](N[C@@H](CCc1ccccc1)C(=O)O)C(=O)N1CCC[C@H]1C(=O)O	0.676 ± 0.74	–
CO/N=C(\C(=O)N[C@@H]1C(=O)N2C(C(=O)O)=C(CSc3nc(=O)c(O)nn3C)CS[C@H]12)c1csc(N)n1	0.383 ± 0.39	–
CC(C)NCC(O)COc1ccc(COCCOC(C)C)cc1 (configuration not stated)	-0.637 ± 0.32	–
O=C1CN2Cc3c(ccc(Cl)c3Cl)N=C2N1	-0.278 ± 0.44	–
Nc1nc(Cl)nc2c1ncn2[C@@H]1O[C@H](CO)[C@@H](O)[C@@H]1F	-1.11 ± 0.022	–
Nc1nc(=O)c2nc(CNc3ccc(C(=O)N[C@@H](CCC(=O)O)C(=O)O)cc3)cnc2[nH]1	1.08 ± 0.53	–
CC(=O)N[C@@H](CC(C)C)C(=O)O	0.343 ± 0.29	–
O=C([O-])[C@H]1/C(=C/CO)O[C@@H]2CC(=O)N21.[Li+]	-0.264 ± 0.46	–
CC[C@H]1OC(=O)[C@H](C)[C@@H](O[C@H]2C[C@@](C)(OC)[C@@H](O)[C@H](C)O2)[C@H](C)[C@@H](O[C@@H]2O[C@H](C)C[C@H](N(C)C)[C@H]2O)[C@](C)(O)C[C@@H](C)/C(=N\OCOCCOC)[C@H](C)[C@@H](O)[C@]1(C)O	0.191 ± 0.44	–
NC(=O)N1c2ccccc2C=Cc2ccccc21	1.08 ± 0.058	–
NCCC[C@H](N)C(=O)O	-0.0363 ± 0.026	–
CN(C)CCN(Cc1cccs1)c1ccccn1	1.12 ± 1	–
CC(=O)OCC(COC(C)=O)OC(C)=O	-0.503 ± 0.076	–

Structure (SMILES)	mitochondrial oxygen consumption rate normalised (2 µM)	mitochondrial oxygen consumption rate normalised (10 µM)
O=c1cc[nH]c(=S)[nH]1	-1.35 ± 0.14	–
CC(=O)OC1CC2CCC1(C)C2(C)C (configuration not stated)	-0.941 ± 0.66	–
CC[C@H]1OC(=O)[C@H](C)[C@@H](O[C@H]2C[C@@](C)(OC)[C@@H](O)[C@H](C)O2)[C@H](C)[C@@H](O[C@@H]2O[C@H](C)C[C@H](N(C)C)[C@H]2O)[C@](C)(O)C[C@@H](C)[C@@H]2N[C@@H](COCCOC)O[C@H]([C@H]2C)[C@]1(C)O	0.29 ± 1.1	-0.149 ± 0.29
O=C1CC2(CCCC2)CC(=O)N1CCCCN1CCN(c2ncccn2)CC1	0.261 ± 0.023	–
CC(=O)Nc1ncc([N+](=O)[O-])s1	0.105 ± 0.071	0.857 ± 0.27
CC12CCC(CC1)C(C)(C)O2	0.356 ± 1.2	–
Cc1cc(CC(=O)O)n(C)c1C(=O)c1ccc(Cl)cc1	0.528 ± 1.7	–
COc1ccc2cc(C(C)C(=O)O)ccc2c1 (configuration not stated)	-0.122 ± 0.38	–
Nc1ccc2cc3ccc(N)cc3nc2c1	0.0446 ± 0.94	–
CC1Cc2ccccc2N1NC(=O)c1ccc(Cl)c(S(N)(=O)=O)c1 (configuration not stated)	-1.06 ± 0.11	–
CCC(=O)c1c(O)cc(O)cc1O	-0.452 ± 0.011	–
FC(F)(Cl)C(F)(F)Cl	0.348 ± 0.15	–
Nc1ccc(S(=O)(=O)Nc2ccnn2-c2ccccc2)cc1	-0.865 ± 0.96	–
CO/N=C(\C(=O)N[C@@H]1C(=O)N2C(C(=O)O)=C(COC(N)=O)CS[C@H]12)c1ccco1	0.55 ± 0.5	–
O=C(NCC(O)CO)c1c(I)c(C(=O)NCC(O)CO)c(I)c(N(CCO)C(=O)CO)c1I (configuration not stated)	0.643 ± 0.39	–
O=C1C2CC3CC1CC(O)(C3)C2	-0.383 ± 0.2	–
CCN1CCN(c2cc3c(cc2F)c(=O)c(C(=O)O)cn3C2CC2)CC1	-0.815 ± 0.47	–
COc1cc(NS(C)(=O)=O)ccc1Nc1c2ccccc2nc2ccccc12	-2.74 ± 1.6	–
Cc1nnc(NS(=O)(=O)c2ccc(N)cc2)s1	-0.67 ± 0.13	–
CC1CC(OC(=O)C(O)c2ccccc2)CC(C)(C)N1C (configuration not stated)	0.169 ± 0.0031	–
C1CCN2C[C@@H]3C[C@@H](CN4CCCC[C@@H]34)[C@H]2C1	-0.935 ± 0.51	–
CC1(C)O[C@@H]2C[C@H]3[C@@H]4CCC5=CC(=O)C=C[C@]5(C)[C@@]4(F)[C@@H](O)C[C@]3(C)[C@]2(C(=O)CO)O1	1.12 ± 0.075	–
O=C(O)CCCc1ccccc1	0.578 ± 0.24	–
Cc1cnc(NC(=O)C2=C(O)c3ccccc3S(=O)(=O)N2C)s1	-0.36 ± 1	–
O=C(O)COC(=O)Cc1ccccc1Nc1c(Cl)cccc1Cl	-0.168 ± 0.88	–
